Measured values reported in publication PMC5192219.

Chains of the proteins cited; added tags and fusions are not shown.
UniProt Q9UER7, whole entry: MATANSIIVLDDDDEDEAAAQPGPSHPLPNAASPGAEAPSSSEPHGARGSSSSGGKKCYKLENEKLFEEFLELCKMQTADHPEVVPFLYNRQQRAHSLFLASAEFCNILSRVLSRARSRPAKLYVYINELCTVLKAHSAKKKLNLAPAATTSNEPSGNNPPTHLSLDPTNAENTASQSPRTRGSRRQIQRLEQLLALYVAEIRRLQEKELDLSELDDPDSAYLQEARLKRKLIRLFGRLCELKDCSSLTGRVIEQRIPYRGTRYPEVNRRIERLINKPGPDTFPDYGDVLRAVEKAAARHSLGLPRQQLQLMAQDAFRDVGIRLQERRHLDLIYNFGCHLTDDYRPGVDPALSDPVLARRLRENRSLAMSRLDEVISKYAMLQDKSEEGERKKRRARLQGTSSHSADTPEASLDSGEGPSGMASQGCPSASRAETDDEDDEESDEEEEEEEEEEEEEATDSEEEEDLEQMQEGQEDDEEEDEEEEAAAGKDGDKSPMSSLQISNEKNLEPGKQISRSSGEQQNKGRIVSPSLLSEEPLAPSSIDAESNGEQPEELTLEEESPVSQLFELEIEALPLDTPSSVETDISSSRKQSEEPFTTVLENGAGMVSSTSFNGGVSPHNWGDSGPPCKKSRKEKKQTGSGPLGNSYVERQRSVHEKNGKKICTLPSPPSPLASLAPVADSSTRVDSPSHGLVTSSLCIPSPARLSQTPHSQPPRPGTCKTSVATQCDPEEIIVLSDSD

Key:
Slug = target: T1, Slug (UniProt O43623); assay: EMSA; settings: 0.05 nM 32P probe, 1 ug Slug, room temperature 30 min, 5x buffer: 2.5 mM EDTA, 50 mM Tris-HCl pH 7.5, 2.5 mM DTT, 5 mM MgCl2, 250 mM NaCl, 20% glycerol, recombinant protein, residues 1-268, label: 32P 5' end (T4 PNK)
T1 sequence (looked up): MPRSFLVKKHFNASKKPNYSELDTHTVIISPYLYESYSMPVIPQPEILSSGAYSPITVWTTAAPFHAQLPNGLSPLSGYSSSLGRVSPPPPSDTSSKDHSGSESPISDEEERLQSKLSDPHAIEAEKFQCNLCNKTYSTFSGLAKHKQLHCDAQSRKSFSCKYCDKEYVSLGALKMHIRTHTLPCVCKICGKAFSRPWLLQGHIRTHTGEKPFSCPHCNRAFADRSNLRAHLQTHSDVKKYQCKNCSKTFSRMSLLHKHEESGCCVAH

Daxx = Daxx (UniProt Q9UER7); assay: EMSA; settings: Daxx alone; 0.05 nM 32P probe, 1 ug Slug, room temperature 30 min; 5x buffer: 2.5 mM EDTA, 50 mM Tris-HCl pH 7.5, 2.5 mM DTT, 5 mM MgCl2, 250 mM NaCl, 20% glycerol; protein translated in vitro; residues 1-740; protein details: HA (N-terminal); label: 32P 5' end (T4 PNK)

**Q.** What does the source list for “GACTTCCGCAAGCTCACAGGTGCTTTGCAGTTCCGACG (double strand) [E-boxC wild-type]”?
**A.** binding result (Slug): binds; binding result (Slug; + HA-Daxx (disrupts the Slug-DNA complex)): binds more weakly; binding result (Daxx): no binding

Construct, isoform or probe ends are uncertain for at least one entry. For part of these data: No signal at the amounts used counts as a negative. For part of these data: The comparison behind a weaker result is the experiment's own reference, which may not be listed here. For part of these data: Tags and fusion partners may be left off the protein sequences shown.
